Results are given in words; binding and its absence hold for the method and conditions named. Binding seen in cells or lysates may run through a third protein. Binding can be weak; no strength is given.
Columns and labels:
[1] = biological target: T1, ras association domain family 1 (RASSF1) (human (endogenous in TE-8 and TE-12)) (UniProt Q9NS23); assay: co-IP; endogenous proteins of TE-8 and TE-12 cell lysates, cells with or without rhBMP-2 (Fig. 5B); precipitating antibody not stated for this experiment
T1 sequence: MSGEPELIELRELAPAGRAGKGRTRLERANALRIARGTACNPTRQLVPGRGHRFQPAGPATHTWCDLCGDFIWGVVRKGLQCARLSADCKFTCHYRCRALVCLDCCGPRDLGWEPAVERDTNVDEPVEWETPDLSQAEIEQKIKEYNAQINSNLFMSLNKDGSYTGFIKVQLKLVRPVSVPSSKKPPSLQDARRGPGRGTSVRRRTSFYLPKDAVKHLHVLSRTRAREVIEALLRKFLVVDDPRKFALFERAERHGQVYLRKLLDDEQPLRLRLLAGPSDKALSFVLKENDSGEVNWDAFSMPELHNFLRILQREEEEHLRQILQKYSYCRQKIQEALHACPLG

[2] = biological target: T1, ras association domain family 1 (RASSF1) (human (endogenous in TE-8 and TE-12)); assay: co-IP; endogenous proteins of TE-8 and TE-12 cell lysates, cells with or without 1 uM rhBMP-2; precipitated with a mouse monoclonal RASSF1 antibody and Protein A-Sepharose; lysis buffer 20 mM Tris HCl pH 8, 10% glycerol, 137 mM NaCl, 1% Nonidet P-40, 2 mM EDTA; blots

Substance | binding [1] | binding [2]
Akt (human (endogenous in TE-8 and TE-12)) | binds | –
Mob1 (human (endogenous in TE-8 and TE-12)) | – | binds

From PMC4882600
